Results published in publication PMC11602165, “A bacterial transcription activator dedicated to the expression of the enzyme catalyzing the first committed step in fatty acid biosynthesis” (Nucleic Acids Research, 2024).
Positions count from the first letter of the chain named. Names and notes keep the numbering of the source. No constants are given. Whether binding was seen depends on the method and setting. Some binding calls cover weakened binding; strength is not graded here. Sequences can lack the tags named with a protein. Values belong to the binder of their own block, whether it stands above or below them.

Assays:
Test in all cases: two-hybrid; bacterial adenylate cyclase two-hybrid; the same AccR variant in pKT25 and pUT18C, co-transformed into E. coli BTH101; LB plates with X-gal and 0.5 mM IPTG, 30°C, 24 h; β-galactosidase activity in Miller Units
[1] = target: AccR wild type, bacterial adenylate cyclase two-hybrid fusions (Shewanella oneidensis) (UniProt Q8EIK0)
[2] = target: AccR S103A, bacterial adenylate cyclase two-hybrid fusions (Shewanella oneidensis) (UniProt Q8EIK0)
[3] = target: AccR E105A, bacterial adenylate cyclase two-hybrid fusions (Shewanella oneidensis) (UniProt Q8EIK0)

binding [1]: binds
B1: AccR wild type, bacterial adenylate cyclase two-hybrid fusions (protein, UniProt Q8EIK0 1-303)
chain: MPDLNGMMLFAAVVRAKGFSQAARETGHPKSTISRKIAQLEEELGVRLLQRDTRNLSLTQVGALFYQHCDSIRNEVEAAKAVIESTHDDVSGSLRIAIPVSFSQELIANLCSGFMRLYPNVELDVQFTDNDIGLVGEGYDIAIKYGPLQSSDLVARLLFERQPILVASPGYLKTRGTPATPKELSDHSGILLGTSRSAPIWPLGKGTRKTMVSFQRKVRVNSPIMVKQLALDDFGIAMLSNSACKTELANGQLVPILQEWPMEPFKVYGVYSSRRQLATNISAFLDFFVKRFSSQESLQSLMG

binding [2]: binds
B2: AccR S103A, bacterial adenylate cyclase two-hybrid fusions (protein, UniProt Q8EIK0 1-303)
chain: B1 chain with S103A

binding [3]: binds
B3: AccR E105A, bacterial adenylate cyclase two-hybrid fusions (protein, UniProt Q8EIK0 1-303)
chain: B1 chain with E105A
